Reference: PubChem BioAssay AID652272 (Drosophila RNAi Screening Center, 2013)

- Purpose: 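Genome-wide knock-down search for components of Hedgehog signalling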 (primary screen)
- System: Drosophila clone 8 (Cl8) cells
- Reagent: long dsRNA against Drosophila genes
- Read-out: 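Plate reader light from a firefly reporter under a ptc promoter fragment that responds to Hedgehog, with Renilla light as transfection reference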
- Direction: firefly Hh reporter signal: higher = more ptc reporter light; Renilla reference signal: higher = more Renilla control light
- Hit rule: 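Hit when the z-score averaged over two replicates is under -2 or over +3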
- Meaning of the calls: active = hit: reporter lowered or raised; inactive = not a hit
In all, the deposit lists about 21,000 reagents; shown is an unselected part of those that have a named target and a result. Over the whole deposit, 503 (2.4%) were called active. 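Raw plate light values, not normalised; calls rest on replicate z-scores that were not deposited; hits include reporter decreases as well as increases.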 Names joined by + are all predicted targets of the reagent. The record does not give: the amount of reagent, the time to read-out.

target gene,DRSC id,"firefly Hh reporter signal, replicate 1","firefly Hh reporter signal, replicate 2","firefly Hh reporter signal, replicate 3","Renilla reference signal, replicate 1","Renilla reference signal, replicate 2",Outcome
drl (derailed),DRSC03523,87152,62503,,3256,2717,inactive
Ance-5,DRSC04055,98306,79045,,3362,3034,inactive
Diap2 (Death-associated inhibitor of apoptosis 2),DRSC07444,79693,50214,,4391,2162,inactive
Skp2 + CG1103,DRSC12160,1.80e5,1.36e5,,8003,4890,inactive
Ziz (Zizimin),DRSC02506,1.23e5,69444,,2963,6245,inactive
Ziz (Zizimin),DRSC02976,1.03e5,48648,,3105,4518,inactive
Kaz-m1 (Kazal-type protease inhibitor m1),DRSC16990,5.26e5,1.19e5,,26960,3760,inactive
CG3690,DRSC18170,1.13e5,3.05e5,,3014,11914,inactive
CG3690,DRSC18641,79922,2.33e5,,2483,8888,inactive
Elp6 (Elongator complex protein 6),DRSC16571,1.32e5,70268,,5277,1545,inactive
CG6495,DRSC01993,43452,51995,,2164,2229,inactive
CG6337,DRSC06977,1.38e5,1.13e5,,2971,8298,inactive
Obp73a (Odorant-binding protein 73a),DRSC09907,1.09e5,,,4610,3201,inactive
"mAChR-A (muscarinic Acetylcholine Receptor, A-type)",DRSC04702,96860,65895,,1376,6017,inactive
Tehao,DRSC03449,1.01e5,42529,,2685,4188,inactive
CG32650,DRSC19899,93778,61739,,2770,1792,inactive
Sf3b5 (Splicing factor 3b subunit 5),DRSC14460,45941,57227,,2256,2658,active
Membrin,DRSC10448,43394,93958,,5124,5920,inactive
Phax (Phosphorylated adaptor for RNA export),DRSC07066,1.30e5,61496,,3685,5968,inactive
msl-3 (male-specific lethal 3),DRSC11371,41644,67280,,87,4193,inactive
mRpL40 (mitochondrial ribosomal protein L40),DRSC15749,65033,71273,,2217,2221,inactive
cass (cassowary),DRSC01850,45964,24673,,1938,1155,inactive
Spn42Db (Serpin 42Db),DRSC05009,70484,70400,,1739,5194,inactive
Aven (Apoptosis and caspase activation inhibitor),DRSC19693,92633,2.53e5,,3312,9050,inactive
MED23 + CG3700,DRSC04406,96666,60411,,2371,4717,inactive
MED23 + CG3700,DRSC04407,59161,38389,,2204,1584,inactive
CDase (Ceramidase),DRSC14932,73128,63383,,1273,1827,inactive
CG9993,DRSC04599,85472,52468,,2544,5123,inactive
CG42594,DRSC18053,22011,22231,,939,1257,inactive
CG42594,DRSC18408,77980,1.70e5,,2658,6850,inactive
CG10936,DRSC05669,1.28e5,3.08e5,,3693,11088,inactive
CG10936,DRSC05670,98997,2.28e5,,3040,8208,inactive
CG10936,DRSC06018,65575,40869,,1712,2745,inactive
nrv2 (nervana 2),DRSC00948,4.31e5,1.22e5,,21360,5237,inactive
nrv2 (nervana 2),DRSC03383,86132,80493,,4220,3456,inactive
CG13771,DRSC02277,92278,59729,,2210,5193,inactive
ca (claret),DRSC15305,99063,91746,,1892,2555,inactive
ca (claret),DRSC15306,1.06e5,1.19e5,,2544,8515,inactive
ca (claret),DRSC16314,98252,1.60e5,,2418,7680,inactive
SCCRO4 (Squamous cell carcinoma-related oncogene 4),DRSC10671,97898,90084,,3664,2845,inactive
CG14913,DRSC02397,1.39e5,54251,,3440,4989,inactive
VhaAC39-1 (Vacuolar H[+] ATPase AC39 subunit 1),DRSC18242,1.68e5,1.11e5,,3544,3495,inactive
Aldh (Aldehyde dehydrogenase),DRSC02717,93569,36922,,2565,4267,inactive
Itgbn (Integrin betanu subunit),DRSC03493,1.15e5,51644,,3315,4342,inactive
CG13634,DRSC14635,5.00e5,83708,,24002,2486,inactive
CG30460,DRSC06559,1.11e5,47732,,3226,3968,inactive
CG30460,DRSC06560,28102,11937,,1095,1133,inactive
sip3 (septin interacting protein 3),DRSC15402,93368,61029,,2602,2433,inactive
CalpC (Calpain C),DRSC19873,66764,1.80e5,,2609,7290,inactive
Or88a (Odorant receptor 88a),DRSC16770,75066,75729,,1821,1660,inactive
bgm (bubblegum),DRSC03495,37968,36002,,2956,2881,active
Mkrn1 (Makorin 1),DRSC11870,1.38e5,1.73e5,,5004,4853,inactive
drosha,DRSC07607,70240,38203,,2456,1465,inactive
His3.3A (Histone H3.3A),DRSC03343,43938,17013,,829,1032,inactive
amrt (amaretto),DRSC19378,92537,1.49e5,,3500,7040,inactive
CG13250,DRSC11698,1.06e5,1.15e5,,4011,3372,inactive
rhea,DRSC11300,61825,55395,,6696,3601,inactive
mRNA-cap (mRNA-capping-enzyme),DRSC19789,56560,1.10e5,,2130,5370,inactive
Ntf-2 (Nuclear transport factor-2),DRSC20552,1.19e5,1.16e5,,3056,2629,inactive
CG34331,DRSC20679,79139,2.33e5,,2817,8420,inactive
CG9302,DRSC03191,5.81e5,1.00e5,,3830,3830,inactive
Cpr47Ec (Cuticular protein 47Ec),DRSC07332,1.12e5,48566,,2913,4336,inactive
TTLL15 (Tubulin tyrosine ligase-like 15),DRSC15543,50608,1.01e5,,1369,2928,inactive
Vps60 (Vacuolar protein sorting 60),DRSC10610,1.06e5,,,5076,3339,inactive
CG14667,DRSC12253,64125,1.01e5,,2227,2900,inactive
Cpr65Ax2 + Cpr65Ax1,DRSC10341,89820,77526,,10323,5585,inactive
Cpr65Ax2 + Cpr65Ax1,DRSC10344,75776,63480,,6947,4944,inactive
CG6621,DRSC16076,83280,80791,,3850,2775,inactive
CG9213,DRSC20170,79200,50253,,2036,1468,inactive
ktub (king tubby),DRSC04551,1.05e5,55842,,4087,2265,inactive
plx (pollux),DRSC12260,86599,1.08e5,,3449,2793,inactive
plx (pollux),DRSC12385,1.39e5,4.80e5,1.30e5,4940,2868,inactive
Cp38 (Chorion protein 38),DRSC18453,1.24e5,3.01e5,,3605,11050,inactive

A few values from the list.
Entry for VhaAC39-1 (Vacuolar H[+] ATPase AC39 subunit 1) [DRSC18242] under “Renilla reference signal, replicate 1”: 3544
Value for CG14913 [DRSC02397] under “Outcome”: inactive
Ziz (Zizimin) [DRSC02506], firefly Hh reporter signal, replicate 1: 1.23e5
Result of CG9213 [DRSC20170] under “Outcome”: inactive
Membrin [DRSC10448], firefly Hh reporter signal, replicate 2: 93958
Under “Renilla reference signal, replicate 1”, Mkrn1 (Makorin 1) [DRSC11870] has 5004
